# Primary screen of a compound library

By UniProt entry, the sequences of proteins in these tests, tags left out.
UniProt E9BF75, entry or part of it: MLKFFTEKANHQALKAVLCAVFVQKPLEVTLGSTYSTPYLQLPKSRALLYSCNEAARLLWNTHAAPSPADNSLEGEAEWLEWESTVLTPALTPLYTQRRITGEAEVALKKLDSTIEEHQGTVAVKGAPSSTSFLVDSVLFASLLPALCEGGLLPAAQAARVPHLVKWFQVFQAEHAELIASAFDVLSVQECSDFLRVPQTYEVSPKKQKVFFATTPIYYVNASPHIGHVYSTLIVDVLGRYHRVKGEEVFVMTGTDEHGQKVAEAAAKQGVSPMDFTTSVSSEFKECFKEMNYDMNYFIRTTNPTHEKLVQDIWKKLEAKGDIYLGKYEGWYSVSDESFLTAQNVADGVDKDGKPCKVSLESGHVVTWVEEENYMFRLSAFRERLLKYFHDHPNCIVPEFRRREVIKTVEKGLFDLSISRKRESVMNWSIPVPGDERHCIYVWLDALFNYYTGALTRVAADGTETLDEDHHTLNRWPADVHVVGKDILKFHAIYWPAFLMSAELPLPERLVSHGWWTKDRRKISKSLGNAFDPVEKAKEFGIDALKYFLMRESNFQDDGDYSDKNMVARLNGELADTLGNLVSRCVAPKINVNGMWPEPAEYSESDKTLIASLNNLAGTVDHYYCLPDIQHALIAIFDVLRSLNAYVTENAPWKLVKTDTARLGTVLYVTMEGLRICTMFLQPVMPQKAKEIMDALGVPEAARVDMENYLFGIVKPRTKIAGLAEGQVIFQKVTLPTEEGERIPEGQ

Results are percentages, as filed. The record does not define 0% and 100%; most values in the screen are far below 50% and negative numbers occur (in some assays of this library far below -100). The compounds are a random part of those screened. A dash means the value is not listed here; it may have been measured.

Mtb heat-shock: 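Assay on Mycobacterium tuberculosis, filed only as a heat shock assay from Cornell; the read-out is not stated. The concentration is filed as 10 mM, unlikely as a test dose, so the dose is not known. The record gives no direction; compounds that gave an IC50 in retests scored well above the rest, so higher reads as stronger inhibition. Size under these conditions: about 69,000 compounds, about 930 of them at 50% or above in at least one test.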
Mtb growth Cornell: 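Whole-cell assay for inhibitors of Mycobacterium tuberculosis growth, labelled Cornell in the record; the read-out is not stated. The concentration is filed as 10 mM, unlikely as a test dose, so the dose is not known. Higher means stronger inhibition (inferred from two other growth screens of the library). Of about 53,000 compounds tested this way, about 900 (1.7%) reached 50% or more in at least one test.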
LdMetRS: 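Primary screen of methionyl-tRNA synthetase; the read-out is not stated. Target: Methionyl-tRNA synthetase (putative), Leishmania donovani (UniProt E9BF75). The test concentration is not given. Values are per cent inhibition. Of about 68,000 compounds tested this way, about 24 (0.035%) reached 50% or more in at least one test.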

| # | compound | Mtb heat-shock | Mtb growth Cornell | LdMetRS |
|---|---|---|---|---|
| 1 | `CC(=O)N1CCC(c2[nH]ncc2S(C)(=O)=O)CC1` | -1.358 | -4.365 | 8.924 |
| 2 | `COC(=O)CCc1c(C)nc2cc(O)nn2c1C` | -4.051 | -35.79 | 9.312 |
| 3 | `Cc1c(C(=O)N2CCN(c3ncccn3)CC2)n(C)c2ccc(Cl)cc12` | -8.407 | 45.95 | 15.01 |
| 4 | `CN(C)C(=O)N1CCC(c2nc3ccc(-c4ccccc4)cn3n2)CC1` | 11.5 | 23.07 | 0 |
| 5 | `O=C(c1ccco1)N1CCO[C@@H]2CNCC[C@@H]2C1` | - | - | -1.493 |
| 6 | `CNC(=O)C1CN(C(=O)Cc2ccc(OC)cc2)Cc2cn(C)nc21` (stereo not shown) | 2.591 | 45.22 | 11.63 |
| 7 | `CN(C)CC(C)(C)Cn1cnc(-c2ccccc2)c1-c1ccncc1` | -19.93 | 15.99 | 18.42 |
| 8 | `Cc1nn(C)c2nc(N(Cc3ccncc3)CC3CCCO3)sc12` (stereo not shown) | -17.78 | 42.92 | -0.6803 |
| 9 | `CC(NC(=O)Nc1ccccc1CN1CCOCC1)c1nccs1` (stereo not shown) | 2.438 | - | 8.541 |
| 10 | `O=C(Cc1cnc(-c2c(Cl)cccc2Cl)s1)N1CCC2(CC1)OCCO2` | -11.2 | 12.61 | 8.065 |
| 11 | `CCC(=O)N1CC[C@H]2[C@H](C[C@@H](Cn3cccn3)N2c2nccs2)C1` | - | - | 6.593 |
| 12 | `CCC(=O)NC1CCCN(C(=O)Nc2cccc(COC(C)C)c2)C1` (stereo not shown) | 17.5 | 9.144 | 11.45 |
| 13 | `N#Cc1c(C2CCOC2)cc(-c2ccc(N3CCCCC3)cc2)nc1N` (stereo not shown) | 26.22 | - | 19.23 |
| 14 | `CCSCC(C)NCc1nc(-c2cccnc2)no1` (stereo not shown) | 3.88 | -14.24 | 4.249 |
| 15 | `CSc1ncnc(NCc2cccs2)c1C#N` | -3.88 | 7.966 | 6.954 |
| 16 | `CN1CCCCCC1C(=O)NCCCn1ncc2ccccc21` (stereo not shown) | 2.69 | 28.62 | 13.43 |
| 17 | `Cc1ccccc1C1(C(=O)N2CCOC(C)C2)CCOCC1` (stereo not shown) | -16 | - | - |
| 18 | `Cc1ccc(C(=O)NCC(O)CN2CCCC2=O)cc1Cl` (stereo not shown) | -7.423 | -42.3 | 7.652 |
| 19 | `COc1ccc(F)c(-c2cc(C)nc(N)n2)c1` | -9.606 | 0.3544 | 4.53 |
| 20 | `Cc1occc1C(=O)N1CCC(C(O)c2ccc(F)cc2)CC1` (stereo not shown) | -6.639 | 7.726 | 16.49 |
| 21 | `O=C(c1ccc(-n2cccn2)nc1)N1CCC(c2ccc(O)cc2)CC1` | -14.65 | -23.46 | 7.186 |
| 22 | `CCc1nc(Nc2cccc(C(=O)NC)c2)c2c(n1)c(C)nn2CC` | 2.276 | - | 22.86 |
| 23 | `CCOCC1c2c(ncn2C(C)C)CCN1C(=O)C1CC1` (stereo not shown) | 5.301 | 6.387 | 10.8 |
| 24 | `Cc1ccc(C(=O)O)cc1-c1cccc(C(C)N(C)C)c1` (stereo not shown) | -8.231 | -2.005 | 15.32 |
| 25 | `O=C(CC1CC1)N[C@@H]1CN(Cc2ccncc2)C[C@@H]2CCCO[C@@H]21` | - | - | 13.81 |
| 26 | `Cn1cncc1CN1CCC(O)(Cn2nc(-c3cccs3)oc2=O)CC1.O=C(O)CC(O)(CC(=O)O)C(=O)O` | 0.6076 | 21.8 | - |
| 27 | `CCOc1cc(Cl)ccc1CNC(=O)c1ccc(=O)n(C)c1` | 1.397 | - | 1.961 |
| 28 | `CN(Cc1ccc(C2CC(=O)Nc3n[nH]cc32)o1)S(C)(=O)=O` (stereo not shown) | -2.965 | - | 7.754 |
| 29 | `CCN1CCN(C(=O)c2cn(Cc3ccccc3)c3ncccc23)CC1` | 27.79 | -17.69 | 15.83 |
| 30 | `COC(=O)C(c1cc(F)ccc1F)N(C)C(=O)c1ccccn1` (stereo not shown) | -12.7 | 0.1474 | 16.52 |
| 31 | `Cn1ccc(CN2CCC(CCc3ccc(O)cc3)CC2)cc1=O` | 2.624 | - | 15.97 |
| 32 | `O=C(c1ccccc1)N1CCOC2CNCC[C@H]21` (stereo partly shown) | - | - | 14.03 |
| 33 | `CCOc1ccc(C(=O)CCC(=O)N(C)Cc2cnccn2)cc1C` | -8.825 | -17.68 | 0 |
| 34 | `CN(Cc1ccccc1)C(=O)CN1CCCC(Cn2cncn2)C1` (stereo not shown) | 5.637 | - | 23.86 |
| 35 | `Cc1csc2c(C3CCCN(C(=O)CCn4cncn4)C3)nc(C)n12` (stereo not shown) | -12 | 6.071 | 9.206 |
| 36 | `O=C(O)C(F)(F)F.c1cnc(N2CCOC3(CCN(CC4CCOC4)CC3)C2)nc1` (stereo not shown) | -27.06 | - | - |
| 37 | `Cc1cccc(NC(=O)N2CCn3cnc(COCC4CC4)c3C2)c1` | -8.254 | - | -9.934 |
| 38 | `CN(CCc1ccccc1)Cc1cc(C(=O)N2CCN(C)C(=O)C2)no1` | -18.68 | 36.15 | 13.5 |
| 39 | `Cc1nnc(NC(=O)CN2CCCC2c2noc(C(C)C)n2)s1` (stereo not shown) | 2.878 | -28.75 | 13.58 |
| 40 | `O=C1CC2(CCN(C(=O)c3ccccc3)C2)Nc2ccccc2N1` (stereo not shown) | -23.4 | - | 8 |
| 41 | `O=C(O)C(F)(F)F.[H][C@@]12COC[C@]1([H])[C@H](OCc1csc(C)n1)CN2Cc1ccc(C)s1` | -38.82 | -12.62 | - |
| 42 | `CC(C)C(c1cccnc1)N(C)C(=O)Cc1c(F)cccc1F` (stereo not shown) | -24.71 | 15.51 | 5.072 |
| 43 | `CC(C)CCN1C2(CCN(Cc3nccs3)C2)c2ccccc2S1(=O)=O` (stereo not shown) | - | - | 7.463 |
| 44 | `COc1cccc(CN2CCc3nc(C(=O)NCC(C)C)sc3CC2)c1.O=C(O)C(F)(F)F` | 5.045 | -11.09 | - |
| 45 | `CN1C[C@@H](C(=O)NCC(F)(F)F)[C@@]2(CCc3ccccc3C(=O)N2)C1` | -10.24 | 4.729 | 11.75 |
| 46 | `CC(C)NC(=O)N1CCN(CC2CC2)c2ncccc2C1.O=C(O)C(F)(F)F` | -1.036 | 17.18 | - |
| 47 | `CCn1ccnc1CN(C)c1cc(OC)ncn1` | -8.634 | 33.56 | 15.47 |
| 48 | `CN1C(=O)CC(c2ccccc2)C12CCN(C(=O)c1ccc[nH]1)CC2` (stereo not shown) | -22.62 | 13.23 | 10.03 |
| 49 | `O=C(CCN1CCCC1c1cccc(F)c1)N1CCc2sccc2C1` (stereo not shown) | 10.25 | - | 29.75 |
| 50 | `COc1ncccc1C(=O)N1CCC2(CC1)CC(OC)CO2.O=C(O)C(F)(F)F` (stereo not shown) | 47.5 | -5.971 | - |
| 51 | `Cc1cccc(-c2nc(CN3CCOCS3(=O)=O)c(C)o2)c1` | 4.566 | 18.11 | 5.479 |
| 52 | `O=C(c1cc[nH]n1)N1CCOCC2(C1)CN(c1ccccc1)C(=O)CO2` (stereo not shown) | 13.94 | 56 | -20.55 |
| 53 | `CCCc1n[nH]c(C2CN(C(=O)c3ccc4c(c3)COC4)CCO2)n1` (stereo not shown) | -21.5 | 9.857 | 10.89 |
| 54 | `NC(=O)C1CCN(Cn2nc(-c3ccccc3)oc2=O)CC1` | -3.414 | -50.55 | -0.7874 |
| 55 | `Cc1noc(C)c1CN(C)C(=O)NCCOc1ccc(F)cc1F` | -17.57 | - | 13.92 |
| 56 | `CC(C)c1n[nH]c(C(=O)Nc2ccnn2C(C)C)c1Br` | -10.17 | -19.54 | 6.103 |
| 57 | `CC(CNC(=O)CCc1ccccn1)c1ccsc1` (stereo not shown) | 10.15 | - | 7.216 |
| 58 | `CCC(CC)CN1C[C@@H]2OCCN(Cc3cnn(C)c3)[C@@H]2C1` | - | - | 5.155 |
| 59 | `CNC(=O)c1cn[nH]c1C1CCN(Cc2sccc2C)C1` (stereo not shown) | 7.006 | -23.65 | 10.97 |
| 60 | `Cn1cnnc1C1CCCN(C(=O)NCc2ccc3c(c2)OCO3)C1` (stereo not shown) | -2.57 | - | 14.58 |
| 61 | `CCOC(=O)[C@H]1[C@@H](O)C(=O)N(C)C12CCN(C(=O)CC1CCCC1)CC2` | 2.484 | 8.199 | 11.62 |
| 62 | `CC(C)c1cc(NC(=O)CN2CCCC2Cn2cncn2)on1` (stereo not shown) | -8.042 | -3.185 | 10.29 |
| 63 | `CN(C)S(=O)(=O)N1CCCC(c2ccncn2)C1` (stereo not shown) | -13.51 | -0.441 | 6.452 |
| 64 | `Cc1cc(C2CCCN(CCCS(N)(=O)=O)C2)n[nH]1` (stereo not shown) | -0.03643 | -31.4 | 10.56 |

7 of the entries, repeated:

compound	Mtb heat-shock	Mtb growth Cornell	LdMetRS
CCOc1ccc(C(=O)CCC(=O)N(C)Cc2cnccn2)cc1C	-8.825	-17.68	0
CN(C)C(=O)N1CCC(c2nc3ccc(-c4ccccc4)cn3n2)CC1	11.5	23.07	0
CN(Cc1ccccc1)C(=O)CN1CCCC(Cn2cncn2)C1 (stereo not shown)	5.637	-	23.86
CCOCC1c2c(ncn2C(C)C)CCN1C(=O)C1CC1 (stereo not shown)	5.301	6.387	10.8
CCn1ccnc1CN(C)c1cc(OC)ncn1	-8.634	33.56	15.47
O=C(CCN1CCCC1c1cccc(F)c1)N1CCc2sccc2C1 (stereo not shown)	10.25	-	29.75
CN1CCCCCC1C(=O)NCCCn1ncc2ccccc21 (stereo not shown)	2.69	28.62	13.43

From ChEMBL document CHEMBL3988442, “University of Dundee, Small-Polar-MMV Screening Library” (2021).